Earlier results in patent publication US20100158897A1, “PAI-1 MODULATORS FOR THE TREATMENT OF OCULAR DISORDERS” (ALCON RESEARCH, LTD., priority 2006, published 2010).
At least one structure is not confirmed: it was looked up by name or label, or the drawing left a doubt.

Conditions: cited from earlier work

## O=C1CCc2cc(OCCCCc3nnnn3[C@H]3CC[C@H](O)CC3)ccc2N1 [HC, 4′-trans-hydroxy-cilostazol]
  activity relative to cilostazol: much less active than cilostazol
